Assay results: article PMC5102385, “Structure of a Spumaretrovirus Gag Central Domain Reveals an Ancient Retroviral Capsid” (PLoS Pathogens, 2016)
Results are given in words; binding and its absence hold for the method and conditions named. Some binding calls cover weakened binding; strength is not graded here.

Legend:
[1] = biological target: PFV-Gag NtDCEN (Prototype foamy virus (PFV)) (UniProt P14349); assay: AUC; sedimentation velocity, 50,000 rpm, 293 K, 20 mM Tris-HCl pH 8, 150 mM NaCl, 0.5 mM TCEP, interference data, 0.5-2.0 mg/ml, C(S) analysis with SEDFIT; both purified
[2] = biological target: PFV-Gag(300–477) (Prototype foamy virus (PFV)) (UniProt P14349); assay: as above
[3] = biological target: PFV-Gag(300–477) (Prototype foamy virus (PFV)) (UniProt P14349); assay: AUC; multi-speed sedimentation equilibrium at varying protein concentration, 20 mM Tris-HCl pH 8, 150 mM NaCl, 0.5 mM TCEP, interference data, global fit with SEDPHAT; monomer to dimer; both purified
[4] = biological target: PFV-Gag CtDCEN (Prototype foamy virus (PFV)) (UniProt P14349); assay: NMR solution structure; 298 K, 20 mM Tris-HCl, 20 mM NaCl, 0.5 mM TCEP pH 7.0, 1.6-2 mM protein; intermolecular NOEs from filtered NOESY on a dimer of unlabelled and 13C/15N-labelled protein mixed equimolar; both purified
[5] = biological target: PFV-Gag CtDCEN (Prototype foamy virus (PFV)) (UniProt P14349); assay: AUC; sedimentation velocity, 50,000 rpm, 293 K, 20 mM Tris-HCl pH 8, 150 mM NaCl, 0.5 mM TCEP, interference data, 0.5-2.0 mg/ml, C(S) analysis with SEDFIT; both purified

## PFV-Gag NtDCEN (from UniProt P14349 300-381) (domain or fragment)
[1]
  binding: no binding (tested: 188 μM)

## PFV-Gag(300–477) (from UniProt P14349 300-477) (domain or fragment)
[2]
  binding: no binding (tested: 24–97 μM)
[3]
  binding: no binding (tested: 24–97 μM)

B1: PFV-Gag CtDCEN (domain or fragment)
chain: RTHGTFPMHQLGNVIKGIVDQEGVATAYTLGMMLSGQNYQLVSGIIRGYLPGQAVVTALQQRLDQEIDNQTRAETFIQHLNAVYEILGLNARGQSIR
notes: Gag of Prototype foamy virus (PFV), residues 381-477 (CtDCEN), amplified from plasmid pcziGag4, in pET22b (NdeI/XhoI); also called PFV-CtDCEN; source: E. coli Rosetta 2 (DE3), purified (Ni-NTA, SEC on Superdex 75)
[4]
  binding: binds weakly
[5]
  binding: binds weakly
